# Experimental data reported in the supplement of paper PMC10849652.
# Chains of the proteins cited; added tags and fusions are not shown. Lines headed by an entry give the natural chain unless they say otherwise; changes in a name come on top.
# UniProt Q5TCQ9: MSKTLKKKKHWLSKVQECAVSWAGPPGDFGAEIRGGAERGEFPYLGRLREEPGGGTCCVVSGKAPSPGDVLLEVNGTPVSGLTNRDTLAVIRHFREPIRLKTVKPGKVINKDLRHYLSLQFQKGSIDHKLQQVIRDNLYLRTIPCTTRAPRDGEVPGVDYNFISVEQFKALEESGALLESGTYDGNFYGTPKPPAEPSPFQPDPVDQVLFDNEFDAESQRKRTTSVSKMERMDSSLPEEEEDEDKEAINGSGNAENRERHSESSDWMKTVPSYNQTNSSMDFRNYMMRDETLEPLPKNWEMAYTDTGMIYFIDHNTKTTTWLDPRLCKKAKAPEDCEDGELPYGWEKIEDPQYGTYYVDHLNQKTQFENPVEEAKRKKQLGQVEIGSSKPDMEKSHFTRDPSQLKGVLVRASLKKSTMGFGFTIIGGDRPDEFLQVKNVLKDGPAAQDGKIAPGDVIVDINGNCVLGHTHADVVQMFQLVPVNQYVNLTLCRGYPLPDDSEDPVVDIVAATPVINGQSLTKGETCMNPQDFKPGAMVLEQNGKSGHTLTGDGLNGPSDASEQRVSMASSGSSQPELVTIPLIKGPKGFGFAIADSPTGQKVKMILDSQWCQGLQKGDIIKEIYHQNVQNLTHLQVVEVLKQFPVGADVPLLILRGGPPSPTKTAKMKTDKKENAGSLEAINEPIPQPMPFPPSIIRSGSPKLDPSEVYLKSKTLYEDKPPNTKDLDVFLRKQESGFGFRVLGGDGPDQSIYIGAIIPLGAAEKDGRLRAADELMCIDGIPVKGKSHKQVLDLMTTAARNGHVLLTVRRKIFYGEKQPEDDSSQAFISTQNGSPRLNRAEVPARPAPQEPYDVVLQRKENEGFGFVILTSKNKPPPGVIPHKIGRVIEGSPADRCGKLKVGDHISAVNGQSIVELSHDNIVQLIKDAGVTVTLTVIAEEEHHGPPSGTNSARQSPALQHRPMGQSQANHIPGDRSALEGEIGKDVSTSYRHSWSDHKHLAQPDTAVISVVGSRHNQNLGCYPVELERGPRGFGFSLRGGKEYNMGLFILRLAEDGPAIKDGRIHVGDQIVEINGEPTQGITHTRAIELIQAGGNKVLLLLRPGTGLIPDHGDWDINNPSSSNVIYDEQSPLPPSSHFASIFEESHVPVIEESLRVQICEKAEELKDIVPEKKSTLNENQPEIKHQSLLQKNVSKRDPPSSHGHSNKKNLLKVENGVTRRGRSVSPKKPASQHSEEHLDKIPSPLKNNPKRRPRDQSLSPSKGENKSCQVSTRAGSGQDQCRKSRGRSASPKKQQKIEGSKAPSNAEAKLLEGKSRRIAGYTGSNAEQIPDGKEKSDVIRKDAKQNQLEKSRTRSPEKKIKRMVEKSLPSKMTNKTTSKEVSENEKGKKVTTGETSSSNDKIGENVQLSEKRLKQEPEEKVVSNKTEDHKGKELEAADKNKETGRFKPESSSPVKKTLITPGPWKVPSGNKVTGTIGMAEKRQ
# UniProt P43361: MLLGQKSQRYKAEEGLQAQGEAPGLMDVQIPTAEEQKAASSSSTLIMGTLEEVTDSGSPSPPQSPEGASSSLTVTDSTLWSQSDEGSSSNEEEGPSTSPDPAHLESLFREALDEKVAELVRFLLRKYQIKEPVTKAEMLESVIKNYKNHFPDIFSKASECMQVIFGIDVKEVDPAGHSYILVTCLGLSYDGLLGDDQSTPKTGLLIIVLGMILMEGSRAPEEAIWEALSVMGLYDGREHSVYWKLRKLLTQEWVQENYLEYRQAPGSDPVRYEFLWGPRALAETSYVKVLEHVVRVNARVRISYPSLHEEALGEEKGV
# UniProt Q8WWC4: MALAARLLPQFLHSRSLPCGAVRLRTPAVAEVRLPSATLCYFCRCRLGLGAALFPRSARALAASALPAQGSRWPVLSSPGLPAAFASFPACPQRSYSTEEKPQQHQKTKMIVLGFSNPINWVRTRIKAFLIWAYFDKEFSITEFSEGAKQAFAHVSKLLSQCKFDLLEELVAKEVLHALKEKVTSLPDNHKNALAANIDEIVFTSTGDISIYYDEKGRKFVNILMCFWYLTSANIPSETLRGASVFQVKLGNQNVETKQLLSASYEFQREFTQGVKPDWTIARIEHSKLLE
# UniProt Q32MZ4: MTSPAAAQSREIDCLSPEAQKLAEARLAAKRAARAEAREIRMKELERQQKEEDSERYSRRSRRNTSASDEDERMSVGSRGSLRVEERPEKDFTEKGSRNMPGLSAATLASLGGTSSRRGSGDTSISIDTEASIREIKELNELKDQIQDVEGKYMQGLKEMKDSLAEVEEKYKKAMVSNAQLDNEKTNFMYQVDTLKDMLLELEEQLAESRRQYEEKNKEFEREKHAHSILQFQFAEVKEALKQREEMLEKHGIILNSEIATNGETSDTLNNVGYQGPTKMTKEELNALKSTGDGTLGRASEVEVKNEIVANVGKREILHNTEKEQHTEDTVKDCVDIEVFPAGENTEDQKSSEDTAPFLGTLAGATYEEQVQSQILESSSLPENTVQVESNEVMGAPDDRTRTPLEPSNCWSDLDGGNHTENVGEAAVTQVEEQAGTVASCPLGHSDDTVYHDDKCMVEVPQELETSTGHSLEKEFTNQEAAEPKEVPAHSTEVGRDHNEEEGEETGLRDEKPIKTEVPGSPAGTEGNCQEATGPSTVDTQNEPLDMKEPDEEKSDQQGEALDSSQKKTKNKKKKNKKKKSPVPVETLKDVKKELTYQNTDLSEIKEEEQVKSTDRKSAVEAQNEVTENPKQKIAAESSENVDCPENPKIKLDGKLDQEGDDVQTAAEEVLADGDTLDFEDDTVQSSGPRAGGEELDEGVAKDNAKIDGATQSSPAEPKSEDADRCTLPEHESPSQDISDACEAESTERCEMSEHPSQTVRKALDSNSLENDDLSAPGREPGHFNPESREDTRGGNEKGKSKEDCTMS
# UniProt Q8WVR3: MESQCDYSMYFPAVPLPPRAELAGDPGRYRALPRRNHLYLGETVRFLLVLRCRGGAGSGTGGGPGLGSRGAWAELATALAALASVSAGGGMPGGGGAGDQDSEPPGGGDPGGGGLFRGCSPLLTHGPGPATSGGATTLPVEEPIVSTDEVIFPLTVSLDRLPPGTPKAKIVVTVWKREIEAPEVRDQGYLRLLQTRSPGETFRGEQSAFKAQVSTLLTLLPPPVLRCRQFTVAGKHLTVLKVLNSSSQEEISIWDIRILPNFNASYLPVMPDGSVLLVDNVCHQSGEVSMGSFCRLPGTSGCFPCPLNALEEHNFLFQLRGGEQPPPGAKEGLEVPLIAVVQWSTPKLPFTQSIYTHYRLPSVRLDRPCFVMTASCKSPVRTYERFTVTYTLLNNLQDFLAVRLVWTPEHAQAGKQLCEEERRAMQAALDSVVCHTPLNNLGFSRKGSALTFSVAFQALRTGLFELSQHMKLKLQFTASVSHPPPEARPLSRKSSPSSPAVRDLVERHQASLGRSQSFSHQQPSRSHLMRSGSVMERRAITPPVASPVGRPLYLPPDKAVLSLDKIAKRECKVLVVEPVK
# UniProt Q12851: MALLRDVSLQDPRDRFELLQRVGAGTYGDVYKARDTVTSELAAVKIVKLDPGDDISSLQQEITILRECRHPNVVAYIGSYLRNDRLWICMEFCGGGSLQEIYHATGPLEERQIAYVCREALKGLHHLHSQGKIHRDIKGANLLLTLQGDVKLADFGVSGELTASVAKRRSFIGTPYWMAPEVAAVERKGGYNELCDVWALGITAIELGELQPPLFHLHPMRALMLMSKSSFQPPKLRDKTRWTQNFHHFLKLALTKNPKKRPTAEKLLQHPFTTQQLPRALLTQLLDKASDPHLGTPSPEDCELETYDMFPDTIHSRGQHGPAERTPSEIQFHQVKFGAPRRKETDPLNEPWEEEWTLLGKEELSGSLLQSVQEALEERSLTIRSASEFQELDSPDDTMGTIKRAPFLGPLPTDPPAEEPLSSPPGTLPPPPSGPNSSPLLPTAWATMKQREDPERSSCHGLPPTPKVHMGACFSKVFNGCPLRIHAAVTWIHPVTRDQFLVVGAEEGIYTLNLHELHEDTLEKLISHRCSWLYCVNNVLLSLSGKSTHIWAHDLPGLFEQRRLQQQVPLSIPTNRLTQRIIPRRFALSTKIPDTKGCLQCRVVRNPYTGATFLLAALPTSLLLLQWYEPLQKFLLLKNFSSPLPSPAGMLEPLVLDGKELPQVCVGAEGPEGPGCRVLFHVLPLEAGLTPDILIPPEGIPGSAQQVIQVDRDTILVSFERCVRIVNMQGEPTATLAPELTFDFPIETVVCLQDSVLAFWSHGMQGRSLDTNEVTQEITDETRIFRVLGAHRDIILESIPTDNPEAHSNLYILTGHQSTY
# UniProt Q7L1W4: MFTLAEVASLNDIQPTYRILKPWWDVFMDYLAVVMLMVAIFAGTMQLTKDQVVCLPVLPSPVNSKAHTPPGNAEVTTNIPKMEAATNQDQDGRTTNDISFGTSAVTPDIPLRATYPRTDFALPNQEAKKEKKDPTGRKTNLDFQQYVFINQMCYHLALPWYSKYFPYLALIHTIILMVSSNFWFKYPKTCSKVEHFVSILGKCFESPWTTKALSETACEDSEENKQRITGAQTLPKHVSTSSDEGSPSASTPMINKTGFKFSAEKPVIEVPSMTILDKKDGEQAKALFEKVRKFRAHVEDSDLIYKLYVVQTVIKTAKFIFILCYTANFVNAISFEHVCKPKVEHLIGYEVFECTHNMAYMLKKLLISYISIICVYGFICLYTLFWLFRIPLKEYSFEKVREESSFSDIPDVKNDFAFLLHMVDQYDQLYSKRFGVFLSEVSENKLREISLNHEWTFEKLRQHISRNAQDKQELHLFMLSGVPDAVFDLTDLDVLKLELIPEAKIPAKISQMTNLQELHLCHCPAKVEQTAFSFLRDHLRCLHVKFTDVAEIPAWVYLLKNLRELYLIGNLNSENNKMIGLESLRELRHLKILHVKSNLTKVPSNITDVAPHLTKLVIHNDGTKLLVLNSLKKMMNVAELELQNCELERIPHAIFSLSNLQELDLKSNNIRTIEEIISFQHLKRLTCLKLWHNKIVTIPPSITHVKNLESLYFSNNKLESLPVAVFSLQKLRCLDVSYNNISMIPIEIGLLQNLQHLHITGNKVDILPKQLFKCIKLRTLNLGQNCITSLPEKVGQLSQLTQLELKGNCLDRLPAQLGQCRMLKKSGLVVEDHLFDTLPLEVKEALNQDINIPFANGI
# UniProt Q16644, whole entry, looked up: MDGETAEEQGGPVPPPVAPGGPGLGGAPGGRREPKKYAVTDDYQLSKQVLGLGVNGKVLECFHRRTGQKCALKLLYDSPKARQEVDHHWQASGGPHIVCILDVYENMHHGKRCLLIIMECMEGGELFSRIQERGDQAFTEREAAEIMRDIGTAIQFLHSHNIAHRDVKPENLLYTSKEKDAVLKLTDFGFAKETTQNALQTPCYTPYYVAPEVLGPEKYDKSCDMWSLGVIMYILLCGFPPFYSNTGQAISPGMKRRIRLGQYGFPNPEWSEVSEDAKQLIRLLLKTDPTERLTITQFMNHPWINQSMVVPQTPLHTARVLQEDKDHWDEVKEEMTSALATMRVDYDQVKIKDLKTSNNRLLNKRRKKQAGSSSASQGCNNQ
# UniProt P51884: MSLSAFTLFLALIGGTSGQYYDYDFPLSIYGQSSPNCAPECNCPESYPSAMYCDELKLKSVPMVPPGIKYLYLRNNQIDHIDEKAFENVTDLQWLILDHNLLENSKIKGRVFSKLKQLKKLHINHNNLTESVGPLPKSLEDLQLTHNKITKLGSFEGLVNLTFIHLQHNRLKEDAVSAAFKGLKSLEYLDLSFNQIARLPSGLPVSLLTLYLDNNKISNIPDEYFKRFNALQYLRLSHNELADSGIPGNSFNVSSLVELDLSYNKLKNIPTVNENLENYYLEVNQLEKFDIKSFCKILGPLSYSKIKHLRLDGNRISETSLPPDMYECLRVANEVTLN
# UniProt Q86X29: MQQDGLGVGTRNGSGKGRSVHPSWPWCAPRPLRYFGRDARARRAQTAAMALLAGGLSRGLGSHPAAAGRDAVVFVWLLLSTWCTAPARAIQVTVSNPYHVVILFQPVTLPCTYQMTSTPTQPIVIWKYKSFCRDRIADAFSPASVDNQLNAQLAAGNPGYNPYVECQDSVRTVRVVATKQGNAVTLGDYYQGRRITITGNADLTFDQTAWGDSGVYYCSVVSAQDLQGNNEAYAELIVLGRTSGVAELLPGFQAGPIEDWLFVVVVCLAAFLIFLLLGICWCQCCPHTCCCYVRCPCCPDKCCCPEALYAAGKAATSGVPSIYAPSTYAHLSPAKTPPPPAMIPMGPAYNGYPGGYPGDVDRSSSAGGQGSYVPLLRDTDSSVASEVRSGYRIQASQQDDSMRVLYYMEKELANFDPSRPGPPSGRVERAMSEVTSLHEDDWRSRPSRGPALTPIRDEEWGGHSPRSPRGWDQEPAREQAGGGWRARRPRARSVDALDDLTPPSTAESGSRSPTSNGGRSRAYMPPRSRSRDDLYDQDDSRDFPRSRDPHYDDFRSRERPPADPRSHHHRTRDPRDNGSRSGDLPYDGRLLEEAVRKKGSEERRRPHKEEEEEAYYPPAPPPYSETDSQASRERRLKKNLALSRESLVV
# The other results are listed elsewhere or left out. Residues, ends and D or L forms follow the SMILES beside them. *: point of attachment. Cbz = O=C(OCc1ccccc1)*
# Experiments:
# Experiment in all cases: log2 fold change, soluble protein after heating vs DMSO (PISA); higher = thermal stabilisation; K562 cells, 10 uM, 30 min; active = over 0.2 and 3.5 SD of the protein, either way, in both replicates (recomputed)
# IRAK-1-4 Inhibitor I = compound: C1COCCN1CCN2C3=CC=CC=C3N=C2NC(=O)C4=CC(=CC=C4)[N+](=O)[O-] [IRAK-1-4 Inhibitor I]
# Procedure, shortened: (§1)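 Thermal stability values are relative to control samples and come from duplicates. They are expressed as log2 fold changes. For measurement, K562 cells (2×10^6 cells/mL) received 10 μM compound for 30 min, and aliquots were heated for 3 min over 48°C-58°C, pooled, and extracted at 4°C in PBS with 0.5% NP-40. Soluble protein, the supernatant after 21,000xg for 90 min, was quantified by TMTpro 16plex LC-MS/MS with equalised channel sums.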
# ibrutinib = compound: C=CC(=O)N1CCC[C@@H](n2nc(-c3ccc(Oc4ccccc4)cc3)c3c(N)ncnc32)C1 [ibrutinib]
# Procedure, shortened: as §1
# [1] = compound: CC(=O)c1cnc2ccc(-c3cc(Cl)c(O)c(Cl)c3)nc2c1N[C@H]1CC[C@H](CN(C)C)CC1
# Procedure, shortened: as §1
# ralimetinib = compound: CC(C)(C)Cn1c(N)nc2ccc(-c3[nH]c(C(C)(C)C)nc3-c3ccc(F)cc3)nc21 [ralimetinib]
# Procedure, shortened: as §1
# [2] = compound: CC(C)(O)CC(=O)NCCn1ccc2ncnc(Nc3ccc(Oc4cccc(C(F)(F)F)c4)c(Cl)c3)c21
# Procedure, shortened: as §1
# [3] = compound: CC(C)C1=C2N=C(C=C(N2N=C1)NCC3=CC=CC=C3)NCCCCCCN
# Procedure, shortened: as §1
# [4] = compound: CC(C)C[C@@H](C=O)NC(=O)[C@H](CC(C)C)NC(=O)[C@H](CC(C)C)NC(=O)OCc1ccccc1
# Procedure, shortened: as §1
# pinometostat = compound: CC(C)N(C[C@H]1O[C@@H](n2cnc3c(N)ncnc32)[C@H](O)[C@@H]1O)[C@H]1C[C@@H](CCc2nc3cc(C(C)(C)C)ccc3[nH]2)C1 [pinometostat]
# Procedure, shortened: as §1
# [5] = compound: CC1=C(C(CC(=O)N1)C2=CC=C(C=C2)C(F)(F)F)C(=O)NC3=C(C=C4C(=C3)C=NN4)F
# Procedure, shortened: as §1
# [6] = compound: CC1=C(C2=C(C=C1)C(=O)C3=CC=CC=C3N2CCCN)C
# Procedure, shortened: as §1
# [7] = compound: CC1=C(C=C(C=C1)NC(=O)C2=CC(=CC=C2)C(C)(C)C#N)NC3=CC4=C(C=C3)N=CN(C4=O)C
# Procedure, shortened: as §1
# [8] = compound: CC1=C(C=C(C=C1)NC(=O)C2=CC(=CC=C2)N(C)C)NC(=O)C3=CC=C(C=C3)O
# Procedure, shortened: as §1
# [9] = compound: CC1=CC=C(C=C1)SC2=C3C=C(SC3=CN=C2)C(=O)N
# Procedure, shortened: as §1
# [10] = compound: CC1=NC(=CC=C1)C2=C(N=C(N2)C(C)(C)C)C3=CC4=NC=CN=C4C=C3
# Procedure, shortened: as §1
# Nexturastat A = compound: CCCCN(Cc1ccc(C(=O)NO)cc1)C(=O)Nc1ccccc1 [Nexturastat A]
# Procedure, shortened: as §1
# vemurafenib = compound: CCCS(=O)(=O)Nc1ccc(F)c(C(=O)c2c[nH]c3ncc(-c4ccc(Cl)cc4)cc23)c1F [vemurafenib]
# Procedure, shortened: as §1
# [11] = compound: CCCS(=O)(=O)Nc1ccc(F)c(C(=O)c2c[nH]c3ncc(Cl)cc23)c1F
# Procedure, shortened: as §1
# [12] = compound: CCCc1cc(C)[nH]c(=O)c1CNC(=O)c1cc(-c2ccnc(N3CCN(C)CC3)c2)cc2c1cnn2C(C)C
# Procedure, shortened: as §1
# givinostat = compound: CCN(CC)Cc1ccc2cc(COC(=O)Nc3ccc(C(=O)NO)cc3)ccc2c1 [givinostat]
# Procedure, shortened: as §1
# barasertib = compound: CCN(CCCOc1ccc2c(Nc3cc(CC(=O)Nc4cccc(F)c4)[nH]n3)ncnc2c1)CCOP(=O)(O)O [barasertib]
# Procedure, shortened: as §1
Target,log2 fold change (IRAK-1-4 Inhibitor I),log2 fold change (ibrutinib),log2 fold change [1],log2 fold change (ralimetinib),log2 fold change [2],log2 fold change [3],log2 fold change [4],log2 fold change (pinometostat),log2 fold change [5],log2 fold change [6],log2 fold change [7],log2 fold change [8],log2 fold change [9],log2 fold change [10],log2 fold change (Nexturastat A),log2 fold change (vemurafenib),log2 fold change [11],log2 fold change [12],log2 fold change (givinostat),log2 fold change (barasertib)
MAEA (UniProt Q7L5Y9),inactive: -0.065,inactive: -0.037,inactive: 0.05,inactive: 0.028,inactive: -0.004,inactive: 0.005,inactive: 0.035,inactive: -0.005,inactive: -0.002,inactive: -0.042,inactive: -0.044,inactive: -0.033,inactive: -0.048,inactive: -0.029,inactive: -0.057,inactive: -0.047,inactive: 0.019,inactive: -0.046,inactive: -0.063,inactive: 0.053
MAGI3 isoform 1 (UniProt Q5TCQ9),inactive: -0.047,inactive: -0.07,inactive: -0.116,,inactive: 0.029,,,inactive: 0,,inactive: -0.152,inactive: -0.135,,,inactive: -0.317,inactive: 0.357,inactive: -0.091,,inactive: -0.224,,inactive: 0.053
LRRC8C (UniProt Q8TDW0),inactive: -0.156,,inactive: -0.141,inactive: 0.312,inactive: 0.024,inactive: 0.009,inactive: 0.123,inactive: 0.271,inactive: -0.036,,inactive: -0.142,inactive: -0.107,inactive: -0.006,inactive: -0.128,inactive: 0.222,,inactive: -0.027,inactive: -0.032,inactive: 0.031,
MAGEA8 (UniProt P43361),inactive: 0.014,inactive: -0.086,inactive: 0.128,inactive: -0.02,,inactive: -0.146,inactive: 0.068,inactive: 0.024,,inactive: -0.265,,inactive: 0.009,inactive: 0.02,inactive: 0.072,,inactive: 0.031,inactive: 0.197,,inactive: 0.034,inactive: -0.123
MAIP1 (UniProt Q8WWC4),inactive: 0,inactive: -0.014,inactive: -0.004,inactive: -0.028,inactive: 0.09,inactive: -0.201,inactive: -0.026,inactive: -0.042,,inactive: 0.052,inactive: -0.022,inactive: -0.005,inactive: 0.083,inactive: 0.088,inactive: -0.033,inactive: 0.034,inactive: 0.057,inactive: -0.034,inactive: 0.001,inactive: -0.002
LRRFIP1 (UniProt Q32MZ4),inactive: 0.014,inactive: 0.019,inactive: 0.027,inactive: -0.003,inactive: 0.063,inactive: 0.084,inactive: 0.011,inactive: 0,,inactive: -0.043,inactive: -0.024,inactive: 0.003,inactive: -0.012,inactive: -0.01,inactive: 0.005,inactive: -0.019,inactive: -0.027,inactive: -0.002,inactive: 0.014,inactive: 0.004
MAP11 (UniProt Q8WVR3),inactive: 0.042,inactive: -0.004,,,inactive: -0.013,inactive: -0.239,,inactive: 0.116,inactive: 0.18,,inactive: -0.142,,,inactive: -0.121,inactive: 0.026,inactive: -0.048,,inactive: 0.046,inactive: -0.105,inactive: -0.016
MAP4K2 (UniProt Q12851),inactive: 0.073,inactive: -0.071,,,,,,inactive: 0.113,,inactive: 0.021,inactive: -0.034,,inactive: 0.079,inactive: 0.094,,,inactive: 0.043,,,inactive: 0.218
LRRC8D (UniProt Q7L1W4),inactive: -0.039,,inactive: 0.015,inactive: 0.128,inactive: 0.03,inactive: -0.1,inactive: 0.116,inactive: 0.09,inactive: -0.175,inactive: 0.031,inactive: -0.078,inactive: -0.024,inactive: -0.115,inactive: -0.09,inactive: 0.161,inactive: -0.124,inactive: 0.101,inactive: 0.076,inactive: 0.076,
MAPKAPK3 (UniProt Q16644),inactive: 0.031,inactive: 0.006,active: 0.332,active: 0.413,inactive: -0.103,inactive: -0.121,inactive: -0.151,inactive: -0.039,,inactive: 0.045,inactive: 0.24,inactive: 0.097,inactive: -0.025,inactive: 0.069,inactive: -0.134,inactive: 0.033,inactive: 0.063,inactive: -0.012,inactive: 0.015,inactive: 0.039
LUM (UniProt P51884),inactive: -0.038,,inactive: 0.078,inactive: -0.054,inactive: 0.263,inactive: 0.124,inactive: 0.023,inactive: -0.068,,inactive: -0.256,inactive: -0.011,inactive: 0.403,inactive: 0.042,inactive: 0.061,inactive: -0.008,inactive: 0.069,inactive: -0.266,,inactive: -0.108,
LSR (UniProt Q86X29),inactive: 0.053,inactive: 0.006,inactive: -0.139,inactive: -0.009,inactive: 0.058,inactive: 0.093,inactive: 0.086,inactive: -0.046,,inactive: -0.008,inactive: -0.051,inactive: 0.016,inactive: -0.05,inactive: -0.05,inactive: -0.074,inactive: -0.028,inactive: -0.061,inactive: -0.019,inactive: -0.046,inactive: -0.016

# Given with bars between the fields: entries from further up
Target | log2 fold change (IRAK-1-4 Inhibitor I) | log2 fold change (ibrutinib) | log2 fold change [1] | log2 fold change (ralimetinib) | log2 fold change [2] | log2 fold change [3] | log2 fold change [4] | log2 fold change (pinometostat) | log2 fold change [5] | log2 fold change [6] | log2 fold change [7] | log2 fold change [8] | log2 fold change [9] | log2 fold change [10] | log2 fold change (Nexturastat A) | log2 fold change (vemurafenib) | log2 fold change [11] | log2 fold change [12] | log2 fold change (givinostat) | log2 fold change (barasertib)
LRRC8C (UniProt Q8TDW0) | inactive: -0.156 |  | inactive: -0.141 | inactive: 0.312 | inactive: 0.024 | inactive: 0.009 | inactive: 0.123 | inactive: 0.271 | inactive: -0.036 |  | inactive: -0.142 | inactive: -0.107 | inactive: -0.006 | inactive: -0.128 | inactive: 0.222 |  | inactive: -0.027 | inactive: -0.032 | inactive: 0.031 | 
LUM (UniProt P51884) | inactive: -0.038 |  | inactive: 0.078 | inactive: -0.054 | inactive: 0.263 | inactive: 0.124 | inactive: 0.023 | inactive: -0.068 |  | inactive: -0.256 | inactive: -0.011 | inactive: 0.403 | inactive: 0.042 | inactive: 0.061 | inactive: -0.008 | inactive: 0.069 | inactive: -0.266 |  | inactive: -0.108 | 
